In US12630850B2, “Enzymatic break down of chlorogenic acid in sunflower-containing products” (Chapman University, priority 2022, dated 2026):

Key:
[1] = CIE L*a*b* determination of greening, sunflower flour cookies; settings: SFF cookies
[2] = Colorimetry of sunflower protein powders; settings: for L* / a* / b*: protein isolate, enzyme present

B1: CGA esterase: CGA esterase from L. helveticus (Genbank ID: WP_025283955.1, Uniprot ID: U6F2K7), expressed in Escherichia coli; the dimer is the active form (protein, listed as Lactobacillus helveticus)
chain: MSRITIERDGLTLVGDREEPFGEIYDMAIIMHGFAANRNTDLLRQIADDLRDENVASVRFDFNGHGESDGKFEDMTVCNEIADGKAILDYVRTDPHVRDIFLVGHSQGGVVASMLAGLYPDVVKKVVLLAPAAQLKDDALRSNTQGATYDPNHIPDWPLVGNKLGMKLGGFYLRTAQVLPIYEVSQCFTRPVSVIAGTNDQWDPKYAKKYDEVYENSELHMIPNADHRFSGGYKDMAADLTAQFLKPAF
With B1 the “CIE a*” value ([1]; Direct Treatment, 0 hr) was 8.26 ± 0.42^abc, the “CIE a*” value ([1]; Direct Treatment, 1 hr) was 8.95 ± 0.41^ab and the “CIE a*” value ([1]; Direct Treatment, 3 hr) was 8.66 ± 0.83^ab. For the same molecule, the “CIE a*” value ([1]; Direct Treatment, 24 hr) was 8.00 ± 0.56^abc, the “CIE a*” value ([1]; Pretreatment, 0 hr) was 10.07 ± 0.53^a and the “CIE a*” value ([1]; Pretreatment, 1 hr) was 9.67 ± 0.05^a. For the same molecule, the “CIE a*” value ([1]; Pretreatment, 3 hr) was 9.69 ± 0.23^a, the “CIE a*” value ([1]; Pretreatment, 24 hr) was 9.84 ± 1.25^a and the “Color of enzymatically treated protein isolates” value ([2]; all three SFM types) was “pale shade of brown”. The “L*” value ([2]; cold pressed) was 39.86 ± 9.48, the “a*” value ([2]; cold pressed) was −0.61 ± 0.21 and the “b*” value ([2]; cold pressed) was 6.11 ± 2.67. The “L*” value ([2]; hexane extracted) was 34.28 ± 3.00, the “a*” value ([2]; hexane extracted) was −0.48 ± 0.21 and the “b*” value ([2]; hexane extracted) was 6.70 ± 2.17. The “L*” value ([2]; undefatted) was 43.05 ± 5.02, the “a*” value ([2]; undefatted) was 1.18 ± 1.02 and the “b*” value ([2]; undefatted) was 8.14 ± 0.96.

Marks after values point to notes of the source that are not given here.
